# At least one compound was matched to its structure with a doubt left.
# Test system: mPKCI WT and KO mice
# Assay: Locomotor activity measurement (open field, ambulation and stereotypy)
# Type: in vivo
# Details: locomotion test, data not shown
# Description: The generation of PKCI^−/− mice was described previously (Su et al, 2003, supra). PKCI^−/− mice and their wild type littermates were derived by breeding heterozygous […] mice for altered PKCI allele (Hint1) and genotype of the animals was confirmed by PCR of DNA from tail biopsies. Animals were housed 4-6/cage, maintained under standard laboratory condition with food and water provided ad libitum. The male animals were tested between 10-20 weeks of age. Wild type and PKCI^−/− groups were matched for age in all experiments. All studies were conducted with an approved protocol from University of Maryland, School of Pharmacy IACUC.
# Mice locomotor activity was monitored during an open field test using “Activity Monitor” chambers (27×27×20.3 cm) associated with the Activity Monitor software (Med Associates Inc St Albans Vt.). Room temperature was set at 23° C.+/−2° C. Horizontal spontaneous locomotion activity, scored as ambulatory counts and stereotypic movements (Sanberg P. R. et al 1987, Pharmacol. Biochem. Behav. 27, 569-72), was recorded during the first 30 min of acclimatization to the novel environment and during 120 min following the treatment. The animals were acclimated to a 12 h cycle light/dark phase with the light on at 7:00 am before the experiments. Tests were performed during the light phase of the cycle between 8:00 am to 3:00 pm. […]
smiles,measurement,value
Fc1ccc(C(OCCN2CCN(CCCc3ccccc3)CC2)c2ccc(F)cc2)cc1 [GBR 12909],enhancement of locomotion in mPKCI KO mice,comparable enhancement of locomotion in mPKCI KO mice as amphetamine

# Source: patent publication US20100235931A1, “Novel Neurological Function of mPKCI” (priority 2006, published 2010)
